Test results taken from patent US20040120923A1.
No constants are given. Whether binding was seen depends on the method and setting. A result given as binding can be weak or reduced; the word gives no strength. Where a sequence is shown, tags or fusion partners need not be part of it.

Protein sequences, listed by entry. Tags and fused reporters are not part of them. Lines headed by an entry give the natural chain unless they say otherwise; changes in a name come on top.
UniProt Q9NZH6: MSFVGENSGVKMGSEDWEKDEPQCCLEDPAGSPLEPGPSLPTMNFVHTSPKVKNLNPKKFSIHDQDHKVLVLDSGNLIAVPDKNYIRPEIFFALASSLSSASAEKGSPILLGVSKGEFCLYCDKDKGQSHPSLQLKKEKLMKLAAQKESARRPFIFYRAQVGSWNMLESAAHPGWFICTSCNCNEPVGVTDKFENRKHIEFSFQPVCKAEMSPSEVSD

What was measured:
[1] = target: T1, IL-18Rα: D3 (third extracellular domain of IL-18Rα, his6 tagged, from E. coli) (UniProt Q13478); assay: BS3 chemical cross-linking, SDS-PAGE, Western blot with anti-IL-18Rα mAb
T1 sequence (looked up): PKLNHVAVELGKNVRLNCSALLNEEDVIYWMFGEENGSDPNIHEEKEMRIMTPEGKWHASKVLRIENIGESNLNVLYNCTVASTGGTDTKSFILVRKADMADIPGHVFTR

[2] = target: T1, IL-18Rα: D3 (third extracellular domain of IL-18Rα, his6 tagged, from E. coli); assay: BS3 chemical cross-linking, reducing SDS-PAGE, Western blot with anti-IL-18Rα mAb (legend of FIG. 3A)

- binding [1]: binds
- binding [2]: binds
Substance: mature IL-1F7b (N-terminus E21) (from UniProt Q9NZH6) (ligand)
